Laboratory results: PubChem BioAssay AID743121 (NCATS, 2013)

Assay: 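Partners whose loss is lethal together with topoisomerase I blockade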 (primary screen)
Cell system: MDA-MB-231 cells, a human breast cancer line
Knock-down reagent: single siRNA against human genes, 20 nM siRNA (0.8 pmol per well)
Timing: 120 h (drug added 48 h after transfection, read 72 h later)
Conditions: camptothecin 20 nM (about EC30) for 72 h; vehicle 0.1% DMSO in parallel plates
Read-out: 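CellTiter-Glo ATP signal, scaled to control siRNA as percent viability; sensitisation given as log2 of untreated divided by camptothecin-treated viability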
Direction: log2 vehicle/camptothecin viability: higher = stronger sensitisation to camptothecin; viability with camptothecin and viability without drug: higher = more viable cells
Call rule: 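Active genes have an RSA gene-level p-value below 0.001, computed from the ratios of their separate siRNAs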
In all, the deposit lists about 26,000 reagents; this is a random part of them. 167 of all reagents (0.63%) were called active. 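Calls are per gene from RSA p-values that are not deposited; an individual active-marked siRNA can sensitise only weakly.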 Reagents against one gene are numbered here.

The first 8 entries as a preview:
target gene | reagent | log2 vehicle/camptothecin viability | viability with camptothecin (% of control) | viability without drug (% of control) | call
DSP (desmoplakin) | 1 | 0.13 | 92.4 | 101 | inactive
DSP (desmoplakin) | 2 | 0.975 | 41.6 | 81.8 | inactive
DSP (desmoplakin) | 3 | -0.404 | 99.2 | 75 | inactive
DSP (desmoplakin) | 4 | -0.342 | 72.4 | 57.1 | inactive
BTN2A1 (butyrophilin subfamily 2 member A1) | 1 | -0.238 | 79.3 | 67.2 | inactive
BTN2A1 (butyrophilin subfamily 2 member A1) | 2 | 0.244 | 68.9 | 81.6 | inactive
BTN2A1 (butyrophilin subfamily 2 member A1) | 3 | 0.0564 | 58.9 | 61.2 | inactive
BTN2A1 (butyrophilin subfamily 2 member A1) | 4 | -0.357 | 40.8 | 31.8 | inactive

Results, repeating the preview:
target gene | reagent | log2 vehicle/camptothecin viability | viability with camptothecin (% of control) | viability without drug (% of control) | call
DSP (desmoplakin) | 1 | 0.13 | 92.4 | 101 | inactive
DSP (desmoplakin) | 2 | 0.975 | 41.6 | 81.8 | inactive
DSP (desmoplakin) | 3 | -0.404 | 99.2 | 75 | inactive
DSP (desmoplakin) | 4 | -0.342 | 72.4 | 57.1 | inactive
BTN2A1 (butyrophilin subfamily 2 member A1) | 1 | -0.238 | 79.3 | 67.2 | inactive
BTN2A1 (butyrophilin subfamily 2 member A1) | 2 | 0.244 | 68.9 | 81.6 | inactive
BTN2A1 (butyrophilin subfamily 2 member A1) | 3 | 0.0564 | 58.9 | 61.2 | inactive
BTN2A1 (butyrophilin subfamily 2 member A1) | 4 | -0.357 | 40.8 | 31.8 | inactive
PLEKHM2 (pleckstrin homology and RUN domain containing M2) | 1 | -0.00395 | 102 | 102 | inactive
PLEKHM2 (pleckstrin homology and RUN domain containing M2) | 2 | -0.459 | 26.9 | 19.5 | inactive
PLEKHM2 (pleckstrin homology and RUN domain containing M2) | 3 | -0.2 | 74.2 | 64.6 | inactive
PLEKHM2 (pleckstrin homology and RUN domain containing M2) | 4 | 0.185 | 85.5 | 97.2 | inactive
INPP5J (inositol polyphosphate-5-phosphatase J) | 1 | -0.259 | 66.9 | 55.9 | inactive
INPP5J (inositol polyphosphate-5-phosphatase J) | 2 | 0.146 | 51.2 | 56.6 | inactive
INPP5J (inositol polyphosphate-5-phosphatase J) | 3 | 0.104 | 101 | 109 | inactive
INPP5J (inositol polyphosphate-5-phosphatase J) | 4 | -0.273 | 89.4 | 74 | inactive
NKX2-8 (NK2 homeobox 8) | 1 | -0.154 | 90.2 | 81 | inactive
NKX2-8 (NK2 homeobox 8) | 2 | 0.268 | 63.3 | 76.2 | inactive
NKX2-8 (NK2 homeobox 8) | 3 | -0.123 | 85.8 | 78.8 | inactive
NKX2-8 (NK2 homeobox 8) | 4 | -0.173 | 74.8 | 66.3 | inactive
LAMB3 (laminin subunit beta 3) | 1 | -0.143 | 82.9 | 75.1 | inactive
LAMB3 (laminin subunit beta 3) | 2 | -0.0119 | 48.7 | 48.3 | inactive
LAMB3 (laminin subunit beta 3) | 3 | 0.346 | 57.1 | 72.5 | inactive
RDH5 (retinol dehydrogenase 5) | 1 | -0.477 | 88.2 | 63.4 | inactive
RDH5 (retinol dehydrogenase 5) | 2 | 1.13 | 20.1 | 44 | inactive
RDH5 (retinol dehydrogenase 5) | 3 | 0.0851 | 49.4 | 52.4 | inactive
RDH5 (retinol dehydrogenase 5) | 4 | 0.381 | 25.3 | 33 | inactive
MRGPRE (MAS related GPR family member E) | 1 | 0.0974 | 68.5 | 73.2 | inactive
MRGPRE (MAS related GPR family member E) | 2 | -0.132 | 87.8 | 80.1 | inactive
MRGPRE (MAS related GPR family member E) | 3 | 0.216 | 51 | 59.2 | inactive
RNF20 (ring finger protein 20) | 1 | -0.0429 | 102 | 99.2 | inactive
RNF20 (ring finger protein 20) | 2 | -0.344 | 137 | 108 | inactive
RNF20 (ring finger protein 20) | 3 | 0.394 | 50.7 | 66.6 | inactive
RNF20 (ring finger protein 20) | 4 | -0.235 | 118 | 100 | inactive
SS18 (SS18 subunit of BAF chromatin remodeling complex) | 1 | -0.0462 | 42.4 | 41.1 | inactive
SS18 (SS18 subunit of BAF chromatin remodeling complex) | 2 | -0.0299 | 96.4 | 94.4 | inactive
SS18 (SS18 subunit of BAF chromatin remodeling complex) | 3 | -0.0254 | 81.6 | 80.2 | inactive
SS18 (SS18 subunit of BAF chromatin remodeling complex) | 4 | 0.238 | 69.2 | 81.6 | inactive
CDK5R2 (cyclin dependent kinase 5 regulatory subunit 2) | 1 | 0.359 | 7.69 | 9.86 | inactive
CDK5R2 (cyclin dependent kinase 5 regulatory subunit 2) | 2 | -0.322 | 64.6 | 51.7 | inactive
CDK5R2 (cyclin dependent kinase 5 regulatory subunit 2) | 3 | -0.274 | 23.4 | 19.4 | inactive
CDK5R2 (cyclin dependent kinase 5 regulatory subunit 2) | 4 | -0.869 | 20.8 | 11.4 | inactive
ANXA2 (annexin A2) | 1 | 0.137 | 97.2 | 107 | inactive
ANXA2 (annexin A2) | 2 | 0.0612 | 22.6 | 23.5 | inactive
ANXA2 (annexin A2) | 3 | -0.257 | 50.1 | 42 | inactive
ANXA2 (annexin A2) | 4 | 0.365 | 65.5 | 84.4 | inactive
CTSF (cathepsin F) | 1 | -0.159 | 117 | 105 | inactive
CTSF (cathepsin F) | 2 | -0.223 | 58.6 | 50.2 | inactive
CTSF (cathepsin F) | 3 | -0.33 | 66.7 | 53.1 | inactive
CTSF (cathepsin F) | 4 | 0.123 | 58.5 | 63.7 | inactive
IFNW1 (interferon omega 1) | 1 | -0.432 | 76 | 56.3 | inactive
IFNW1 (interferon omega 1) | 2 | 0.442 | 31.7 | 43.1 | inactive
IFNW1 (interferon omega 1) | 3 | -0.0403 | 84.7 | 82.3 | inactive
GPR52 (G protein-coupled receptor 52) | 1 | -0.461 | 66.2 | 48.1 | inactive
GPR52 (G protein-coupled receptor 52) | 2 | -0.205 | 93.2 | 80.9 | inactive
GPR52 (G protein-coupled receptor 52) | 3 | 0.22 | 81.5 | 94.9 | inactive
GPR52 (G protein-coupled receptor 52) | 4 | -0.206 | 78 | 67.6 | inactive
DHFR (dihydrofolate reductase) | 1 | -0.221 | 65.3 | 56 | inactive
DHFR (dihydrofolate reductase) | 2 | -0.319 | 112 | 89.7 | inactive
DHFR (dihydrofolate reductase) | 3 | -0.399 | 103 | 78.2 | inactive
DHFR (dihydrofolate reductase) | 4 | -0.344 | 92.4 | 72.8 | inactive
CASP2 (caspase 2) | 1 | 0.261 | 47.3 | 56.7 | inactive
CASP2 (caspase 2) | 2 | -0.413 | 85.7 | 64.4 | inactive
CASP2 (caspase 2) | 3 | -0.386 | 74.1 | 56.7 | inactive
CASP2 (caspase 2) | 4 | -0.506 | 46.5 | 32.8 | inactive
RBM10 (RNA binding motif protein 10) | 1 | 0.0894 | 92.5 | 98.4 | inactive
RBM10 (RNA binding motif protein 10) | 2 | -0.0779 | 62.3 | 59 | inactive
RBM10 (RNA binding motif protein 10) | 3 | -0.31 | 85.8 | 69.2 | inactive
TTN (titin) | 1 | -0.333 | 107 | 85.1 | inactive
TTN (titin) | 2 | -0.0882 | 102 | 95.8 | inactive
TTN (titin) | 3 | 0.37 | 67.4 | 87.1 | inactive
TTN (titin) | 4 | -0.054 | 76 | 73.2 | inactive
RIPK4 (receptor interacting serine/threonine kinase 4) | 1 | -0.0904 | 55 | 51.6 | inactive
RIPK4 (receptor interacting serine/threonine kinase 4) | 2 | -0.128 | 115 | 105 | inactive
RIPK4 (receptor interacting serine/threonine kinase 4) | 3 | -0.0454 | 13.1 | 12.7 | inactive
RIPK4 (receptor interacting serine/threonine kinase 4) | 4 | -0.0754 | 97.1 | 92.2 | inactive
LCT (lactase) | 1 | -0.289 | 118 | 96.5 | inactive
LCT (lactase) | 2 | -0.162 | 95.2 | 85.1 | inactive
LCT (lactase) | 3 | -0.101 | 96 | 89.4 | inactive
LCT (lactase) | 4 | 0.0248 | 80.4 | 81.8 | inactive
TUBD1 (tubulin delta 1) | 1 | 1.56 | 16.7 | 49.3 | inactive
TUBD1 (tubulin delta 1) | 2 | -0.0288 | 111 | 109 | inactive
TUBD1 (tubulin delta 1) | 3 | -0.0013 | 109 | 109 | inactive
TUBD1 (tubulin delta 1) | 4 | -0.0526 | 76.6 | 73.8 | inactive
TRHR (thyrotropin releasing hormone receptor) | 1 | -0.312 | 99.7 | 80.3 | inactive
TRHR (thyrotropin releasing hormone receptor) | 2 | -0.324 | 145 | 115 | inactive
TRHR (thyrotropin releasing hormone receptor) | 3 | -0.0153 | 69.6 | 68.8 | inactive
TRHR (thyrotropin releasing hormone receptor) | 4 | -0.206 | 78.4 | 68 | inactive
